PubChem BioAssay AID1671195, Yale University | 2021
This is one part, drawn at random, of about 22,000 reagents tested. In the full data, about 1,510 (6.9%) were called active. 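Active includes knockdowns raising or lowering LDL uptake; positive z-scores mean more uptake, negative mean less.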 No sequences are given here.

Aim: 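Regulators of LDL receptor activity judged by labelled LDL uptake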 (primary screen)
Cell system: human Huh7 hepatoma cells
Reagents: siRNA pool against human genes, 18 nM
Timing: about 2 to 2.5 days of knockdown, then 8 h LDL uptake
Treatment: DiI-labelled LDL at 30 µg/ml for 8 h, in lipoprotein-deficient serum medium
Measurement: 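Per-cell DiI-LDL intensity by automated imaging; well means scaled to the plate median and given as a robust z-score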
Reading the numbers: robust z-score: higher = more LDL uptake after knockdown
Rule for the call: 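a gene counts as active if at least two replicate z-scores exceed ±2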

gene | robust z-score, replicate 1 | robust z-score, replicate 2 | robust z-score, replicate 3 | activity call
GAPDHP72 | -1.04 | -1.18 | -1.48 | inactive
PCARE | 2.36 | 3.13 | 2.55 | active
WFDC10B | -1.04 | -0.884 | -1.12 | inactive
NALCN | -1.76 | -1.09 | -1.64 | inactive
INTS4P1 | -0.816 | -0.703 | -0.461 | inactive
LOC143034 (retired record) | -1.72 | -1.97 | -1.51 | inactive
C1QTNF9 | -0.267 | -0.0842 | -0.459 | inactive
CSF2RB | 2.86 | 1.44 | 1.88 | inactive
ASB12 | -1.59 | -2.3 | -1.84 | inactive
CLEC5A | 0.685 | 1.27 | 0.736 | inactive
TAF5 | 0.91 | 1.14 | -0.309 | inactive
METTL8 | 0.194 | -0.522 | -0.216 | inactive
SMPD1 | 0.828 | 0.298 | 0.00184 | inactive
CBLN1 | -1.33 | -1.1 | -1.43 | inactive
LOC390777 (retired record) | 0.757 | 0.519 | 0.339 | inactive
RFX8 | -0.851 | -0.689 | -0.375 | inactive
FOXD3 | -0.869 | -0.591 | -0.657 | inactive
ANKRD23 | 0.197 | -0.516 | -0.0239 | inactive
LCN8 | -0.713 | -1.32 | 0.507 | inactive
DYRK3 | 0.337 | 0.567 | 0.277 | inactive
HSD17B6 | 1.98 | 2.36 | 1.26 | active
ALG10B | 0.435 | 0.126 | -0.108 | inactive
TRO | -0.504 | 0.433 | 0.428 | inactive
TCF4 | -0.127 | 0.692 | 0.93 | inactive
LOC441356 (retired record) | 1.37 | 0.601 | 0.585 | inactive
HOXC12 | 0.483 | -0.663 | 0.419 | inactive
MOB1A | -0.485 | -0.858 | -1.59 | inactive
AMMECR1L | -1.9 | -1.08 | -1.77 | inactive
AMFR | -0.454 | -0.637 | -0.285 | inactive
ACKR5 | -2.11 | -1.91 | -2.04 | active
KNCN | 1.26 | 1.98 | 1.4 | inactive
LAP3 | 0.269 | 0.349 | -0.16 | inactive
BBS4 | -0.843 | -0.874 | -0.475 | inactive
SPDYE3 | 0.242 | 0.868 | 1 | inactive
ABTB1 | -1.08 | -1.13 | -1.33 | inactive
DEK | -1.08 | -1.85 | -0.446 | inactive
ATAD3A | -1.09 | -0.79 | -1.19 | inactive
PTH2R | -0.21 | -0.29 | -0.682 | inactive
PNLIP | 0.869 | 1.38 | 1.41 | inactive
NDRG3 | -0.476 | -1.25 | -0.912 | inactive
TMSB4Y | 2.22 | 0.799 | 0.892 | inactive
SRSF7 | -0.549 | -0.374 | -0.37 | inactive
ANP32E | -0.607 | -1.17 | -0.766 | inactive
LGALS1 | 2.4 | 2.66 | 1.64 | active
NCKAP1L | 2.58 | 2.06 | 2.29 | active
TM4SF19 | -1.34 | -1.35 | -1.22 | inactive
LINC00272 | 0.0951 | 0.0969 | -0.293 | inactive
C11orf40 | 1.84 | 0.804 | 1.88 | inactive
LOC440781 (retired record) | 3.25 | 2.8 | 2.9 | active
ZNF780A | -0.159 | -0.18 | 0.157 | inactive
B3GALT9 | -0.408 | -0.439 | -0.571 | inactive
BCKDK | -0.0216 | -1.33 | -0.807 | inactive
REN | 1.02 | 0.552 | 0.543 | inactive
ADAM9 | 1.11 | 0.319 | 0.957 | inactive
COQ10B | 0.833 | 0.446 | 0.246 | inactive
LOC285544 (retired record) | -0.473 | -0.783 | -0.558 | inactive
TAF7L | 0.378 | 0.32 | -0.0513 | inactive
XPO4 | 0.923 | 0.128 | 1.28 | inactive
OSBPL9 | -0.624 | 0.212 | -0.262 | inactive
CFAP276 | 0.874 | 0.805 | -0.081 | inactive
AGO4 | 1.37 | 1.13 | 0.948 | inactive
ZFAND3 | -1.15 | -0.693 | -0.937 | inactive
TADA1 | 0.315 | 0.71 | 0.613 | inactive
DEPDC4 | 0.194 | 0.464 | -0.104 | inactive
PDPR2P | 2.19 | 2.17 | 2.33 | active
CBFA2T2 | 1.29 | 1.08 | 1.48 | inactive
SLC67A1-AS | -0.9 | -0.209 | -1.23 | inactive
GPM6B | -1.29 | -1.1 | -1.07 | inactive
